We go through one molecule from patent US20050209137A1 (published 2005).

These are yes or no findings as the source states them, for the method shown. Some results given as binding are weak or reduced against the parent protein; the word gives no strength.

The target in the test is T1, chicken leptin (chicken, UniProt O42164 19-163, limits assumed).
T1 sequence (looked up): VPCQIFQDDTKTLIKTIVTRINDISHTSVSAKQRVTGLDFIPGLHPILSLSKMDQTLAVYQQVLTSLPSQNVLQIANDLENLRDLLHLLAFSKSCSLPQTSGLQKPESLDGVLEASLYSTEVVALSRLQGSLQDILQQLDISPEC
Kind of test: gel filtration and binding assays. On the technique in general: SEC sorts molecules by how far they enter the pores of the column.

B1: recombinant chicken leptin receptor binding domain (chLBD), amino acids 419-624 of the chicken leptin receptor (receptor)
chain: MAVDVNINIKCETDGYLTKMTCRWSANPNALLLGSSLQLRYHRSKIYCSNFPSTPPESEVKECHFQRNHSYECTFQPVFLLSGYTMWIELKHSLGTLESSPTCVVPADVVKPLPPSNIKAEITRNDGLLNVSWTNPVFTNDDLKFQIRYAVNREELTWELYEVLSVPTRSAVIEVQLCVEYIVQIRCRALDGLGYWSNWSRSAYAAVKD
notes: also called CLBD
Turning to B1, the binding result was “binds”.
